Source: patent US9487570B2 (BETTA PHARMACEUTICALS CO., LTD, priority 2010, dated 2016)

Assay: general procedure: Fmoc solid-phase peptide synthesis; Rink Amide MBHA; symmetric anhydrides / preformed HOBt esters (Boc); HBTU with NMM (Fmoc)
Details: whole synthesis, RP-HPLC mass spectrometry (Hewlett Packard LCMS-1100, diode array detector, ESI), scale 100 μmole

## [Q-linker-d8, Glu22]GLP-1-(7-37)-peptide
  final HPLC purity: >95%
